Source: article PMC11074315
No constants are given. Whether binding was seen depends on the method and setting. Binding can be weak; no strength is given. Tags and fused reporters may be left off the sequences shown.

Tests used:
[1] = target: T1, GST-AUR1 (Arabidopsis thaliana) (UniProt Q9M077); assay: pull-down; GST-AUR1 immobilised on glutathione beads, incubated with purified His-fused MAP65-3 or its truncations; 20 mM Tris-HCl pH 8.0, 150 mM NaCl, 0.2% Triton, 4 °C, 2 h; immunoblot with anti-His and anti-GST; both purified
T1 sequence: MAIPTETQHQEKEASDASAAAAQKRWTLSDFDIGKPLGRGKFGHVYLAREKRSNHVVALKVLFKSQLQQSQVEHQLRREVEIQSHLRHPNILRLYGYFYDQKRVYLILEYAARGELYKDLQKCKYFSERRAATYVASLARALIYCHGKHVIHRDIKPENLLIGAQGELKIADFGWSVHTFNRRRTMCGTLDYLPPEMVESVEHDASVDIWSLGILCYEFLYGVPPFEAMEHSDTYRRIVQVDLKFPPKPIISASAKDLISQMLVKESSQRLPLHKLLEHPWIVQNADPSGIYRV

[2] = target: T2, AUR1 (alpha-Aurora kinase), yeast two-hybrid fusion (Arabidopsis thaliana) (UniProt Q9M077); assay: two-hybrid; pGADT7-GW (AD) and pGBKT7-GW (BD) fusions in yeast strain AH109; growth on -L/-W/-H/-A selection media, 30 °C, 2 days
T2 sequence: T1 sequence

Row | binding [1] | binding [2] | Substance
1 | binds | – | His-fused MAP65-3 N-terminal fragment (Arabidopsis thaliana) (domain or fragment)
2 | – | no binding | MAP65-3 C-terminal microtubule-binding region, yeast two-hybrid fusion (Arabidopsis thaliana) (domain or fragment)
3 | – | binds | MAP65-3 N-terminal dimerization fragment, yeast two-hybrid fusion (Arabidopsis thaliana) (domain or fragment)
